Laboratory results as given in US20070191450A1, “Use of Benzo-Heteroaryl Sulfamide Derivatives for the Treatment of Mania and Bipolar Disorder” (priority 2006, published 2007).
At least one structure is not confirmed: it was looked up by name or label, or the drawing left a doubt.

System: dominant rats
Assay: Dominant-Submissive assay: Reduction of Dominant Behavior Model (RDBM)
Format: in vivo, rat
Settings: historical data, FIG. 2; i.p.: lithium 100 mg/kg, carbamazepine 20 mg/kg, VPA 30 mg/kg
Experimental: Dominance and submissiveness, defined in a competition test and measured as the relative success of two food-restricted rats to gain access to a feeder, form a behavioral paradigm—the Dominant Submissive Relationship (DSR). This paradigm results in two models which are predictive of ability of test compounds (drugs) to treat mood disorders.
Test compounds are evaluated for either their ability to inhibit the dominant behavior of rats taking food at the expense of an opponent (reduction of dominant behavior model or RDBM) and thus their potential as treatments for mania; or for their ability to increase the competitive behavior of submissive rats losing such encounters (reduction of submissive behavior model or RSBM) and thus their potential as treatments for depression; (Malatynska, E., and Knapp, R. J., Neuroscience and Biobehavioral Review, 29 (2005) 715-737). […]
The basic testing apparatus consisted of two chambers connected with a tunnel only large enough to allow one rat to pass through at a time. […] During the five-minute daily sessions, time spent in the feeder zone by each rat was recorded by the video tracking software and saved into a text file.
The test began with a random assignment of rats into pairs. […] The time spent in the feeder zone by each animal was recorded. […]

`[Li]` [lithium] was tested, and the “treatment time after which dominant behavior was significantly reduced” value was 1 weeks.
